Measurements from paper PMC3187750, “Functional Analysis of the Cytoskeleton Protein MreB from Chlamydophila pneumoniae” (PLoS ONE, 2011).
Results are given in words; binding and its absence hold for the method and conditions named. A result given as binding can be weak or reduced; the word gives no strength. Where a sequence is shown, tags or fusion partners need not be part of it.

Molecular target: T1, MreB from Chlamydophila pneumoniae, wild type, C-terminal His6 tag (C. pneumoniae GiD)
T1 sequence: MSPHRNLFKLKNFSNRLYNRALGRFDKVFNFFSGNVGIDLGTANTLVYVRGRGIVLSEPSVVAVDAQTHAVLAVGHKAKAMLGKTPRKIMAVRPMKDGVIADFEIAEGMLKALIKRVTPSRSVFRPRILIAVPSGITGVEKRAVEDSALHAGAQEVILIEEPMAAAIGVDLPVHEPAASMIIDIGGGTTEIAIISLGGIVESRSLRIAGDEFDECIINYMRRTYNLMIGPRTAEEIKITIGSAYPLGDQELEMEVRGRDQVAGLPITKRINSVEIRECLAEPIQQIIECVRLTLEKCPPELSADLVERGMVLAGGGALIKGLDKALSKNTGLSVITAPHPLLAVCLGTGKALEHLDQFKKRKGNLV
Experiment: co-sedimentation; both purified

MurF from C. pneumoniae (enzyme) was tested, and the binding was “binds”.
